These are yes or no findings as the source states them, for the method shown.
Molecular target: flavin-dependent monooxygenase SorC from Penicillium chrysogenum (Penicillium chrysogenum) (UniProt B6HN76)
Experiment: SEC + other: mass photometry; oligomeric state of the purified enzyme alone; conditions in the Supporting Information (Figures S5, S7, S13); both purified

Amino acid sequences for entries named in this document (tags omitted).
UniProt B6HN76: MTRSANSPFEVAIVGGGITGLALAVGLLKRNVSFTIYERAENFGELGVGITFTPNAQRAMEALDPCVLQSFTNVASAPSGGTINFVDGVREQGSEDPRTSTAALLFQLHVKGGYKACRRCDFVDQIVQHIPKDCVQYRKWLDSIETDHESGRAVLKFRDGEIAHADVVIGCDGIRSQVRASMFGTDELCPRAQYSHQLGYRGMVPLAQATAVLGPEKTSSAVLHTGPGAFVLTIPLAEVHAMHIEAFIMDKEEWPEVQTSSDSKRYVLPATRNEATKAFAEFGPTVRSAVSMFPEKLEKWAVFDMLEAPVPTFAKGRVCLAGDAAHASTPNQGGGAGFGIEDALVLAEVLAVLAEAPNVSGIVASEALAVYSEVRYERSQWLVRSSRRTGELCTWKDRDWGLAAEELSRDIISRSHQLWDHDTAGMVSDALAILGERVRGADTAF

## flavin-dependent monooxygenase SorC from Penicillium chrysogenum (from UniProt B6HN76 1-445) (enzyme)
  binding: no binding

Reference: article PMC11934079, “Structural and Mechanistic Characterization of the Flavin-Dependent Monooxygenase and Oxidase Involved in Sorbicillinoid Biosynthesis” (ACS Chemical Biology, 2025)
